Laboratory results from article PMC11192940.

By UniProt entry, the sequences of proteins in these tests, tags left out. Where a name states a change or a piece, a line headed by the entry shows the natural chain unless it says otherwise.
UniProt Q9NZH6: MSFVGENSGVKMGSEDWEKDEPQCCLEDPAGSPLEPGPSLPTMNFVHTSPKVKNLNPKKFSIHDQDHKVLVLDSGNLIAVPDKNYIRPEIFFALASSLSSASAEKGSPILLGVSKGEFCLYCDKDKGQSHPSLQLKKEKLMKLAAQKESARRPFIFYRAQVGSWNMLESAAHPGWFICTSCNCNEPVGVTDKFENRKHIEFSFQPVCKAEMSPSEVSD

Tests used:
[1] = target: Rheb, endogenous (human (endogenous in HEK-293T and A549)) (UniProt Q15382); assay: co-IP; whole cell lysates of HEK-293T transfected with or without IL-37d forms incubated with Rheb antibody, then protein A/G; western blot with Flag or indicated antibodies
[2] = target: VC155-Rheb (pBiFC-VC155-Rheb), full-length Rheb fused to the C-terminal fragment of Venus (human) (UniProt Q15382); assay: split reporter; HEK-293T transfected with pBiFC-VN173-IL-37d forms and pBiFC-VC155-Rheb (2 μg plasmid); YFP fluorescence by confocal microscopy
[3] = target: IL-37d with a 3×Flag at the C-terminal (full-length human IL-37d, pcDNA3.1) (human) (UniProt Q9NZH6); assay: co-IP; lysates of transfected HEK-293T or A549 cells incubated with IgG or IL-37d antibody, then protein A/G; western blot; lysis buffer 1.0% NP-40, 10 mM Tris-HCl pH 7.4, 1 mM EDTA, 150 mM NaCl, 10% glycerol; A549 cells also treated with 10 μM FTI-277 for 16 h; HEK-293T also with or without TSC2 plasmid

Row | binding [2] | Substance | also measured
1 | – | IL-37d-N161S with 3×Flag (from UniProt Q9NZH6-4) | binding [1]: binds
2 | – | IL-37d with a 3×Flag at the C-terminal (full-length human IL-37d, pcDNA3.1) (from UniProt Q9NZH6-4) | binding [1]: binds
3 | no binding | VN173-IL-37d-C160S (printed as pBiFC-VN173-IL-37d-C160 in the methods) (from UniProt Q9NZH6-4) | –
4 | no binding | VN173-IL-37d-A123P (pBiFC-VN173-IL-37d-A123P) (from UniProt Q9NZH6-4) | –
5 | binds | VN173-IL-37d-N161S (pBiFC-VN173-IL-37d-N161S) (from UniProt Q9NZH6-4) | –
6 | – | Myc-Rheb (full-length human Rheb with an N-terminal Myc, pCMV) (from UniProt Q15382 1-184) | binding [3]: binds
7 | no binding | VN173-IL-37d-G153D (pBiFC-VN173-IL-37d-G153D) (from UniProt Q9NZH6-4) | –

Results are given in words; binding and its absence hold for the method and conditions named. In cells and extracts the contact can be indirect. Binding can be weak; no strength is given.
